Among the data in article doi:10.1101/595702 are binding values, retold here.

Amino acid sequences for entries named in this document (tags omitted).
UniProt Q15154: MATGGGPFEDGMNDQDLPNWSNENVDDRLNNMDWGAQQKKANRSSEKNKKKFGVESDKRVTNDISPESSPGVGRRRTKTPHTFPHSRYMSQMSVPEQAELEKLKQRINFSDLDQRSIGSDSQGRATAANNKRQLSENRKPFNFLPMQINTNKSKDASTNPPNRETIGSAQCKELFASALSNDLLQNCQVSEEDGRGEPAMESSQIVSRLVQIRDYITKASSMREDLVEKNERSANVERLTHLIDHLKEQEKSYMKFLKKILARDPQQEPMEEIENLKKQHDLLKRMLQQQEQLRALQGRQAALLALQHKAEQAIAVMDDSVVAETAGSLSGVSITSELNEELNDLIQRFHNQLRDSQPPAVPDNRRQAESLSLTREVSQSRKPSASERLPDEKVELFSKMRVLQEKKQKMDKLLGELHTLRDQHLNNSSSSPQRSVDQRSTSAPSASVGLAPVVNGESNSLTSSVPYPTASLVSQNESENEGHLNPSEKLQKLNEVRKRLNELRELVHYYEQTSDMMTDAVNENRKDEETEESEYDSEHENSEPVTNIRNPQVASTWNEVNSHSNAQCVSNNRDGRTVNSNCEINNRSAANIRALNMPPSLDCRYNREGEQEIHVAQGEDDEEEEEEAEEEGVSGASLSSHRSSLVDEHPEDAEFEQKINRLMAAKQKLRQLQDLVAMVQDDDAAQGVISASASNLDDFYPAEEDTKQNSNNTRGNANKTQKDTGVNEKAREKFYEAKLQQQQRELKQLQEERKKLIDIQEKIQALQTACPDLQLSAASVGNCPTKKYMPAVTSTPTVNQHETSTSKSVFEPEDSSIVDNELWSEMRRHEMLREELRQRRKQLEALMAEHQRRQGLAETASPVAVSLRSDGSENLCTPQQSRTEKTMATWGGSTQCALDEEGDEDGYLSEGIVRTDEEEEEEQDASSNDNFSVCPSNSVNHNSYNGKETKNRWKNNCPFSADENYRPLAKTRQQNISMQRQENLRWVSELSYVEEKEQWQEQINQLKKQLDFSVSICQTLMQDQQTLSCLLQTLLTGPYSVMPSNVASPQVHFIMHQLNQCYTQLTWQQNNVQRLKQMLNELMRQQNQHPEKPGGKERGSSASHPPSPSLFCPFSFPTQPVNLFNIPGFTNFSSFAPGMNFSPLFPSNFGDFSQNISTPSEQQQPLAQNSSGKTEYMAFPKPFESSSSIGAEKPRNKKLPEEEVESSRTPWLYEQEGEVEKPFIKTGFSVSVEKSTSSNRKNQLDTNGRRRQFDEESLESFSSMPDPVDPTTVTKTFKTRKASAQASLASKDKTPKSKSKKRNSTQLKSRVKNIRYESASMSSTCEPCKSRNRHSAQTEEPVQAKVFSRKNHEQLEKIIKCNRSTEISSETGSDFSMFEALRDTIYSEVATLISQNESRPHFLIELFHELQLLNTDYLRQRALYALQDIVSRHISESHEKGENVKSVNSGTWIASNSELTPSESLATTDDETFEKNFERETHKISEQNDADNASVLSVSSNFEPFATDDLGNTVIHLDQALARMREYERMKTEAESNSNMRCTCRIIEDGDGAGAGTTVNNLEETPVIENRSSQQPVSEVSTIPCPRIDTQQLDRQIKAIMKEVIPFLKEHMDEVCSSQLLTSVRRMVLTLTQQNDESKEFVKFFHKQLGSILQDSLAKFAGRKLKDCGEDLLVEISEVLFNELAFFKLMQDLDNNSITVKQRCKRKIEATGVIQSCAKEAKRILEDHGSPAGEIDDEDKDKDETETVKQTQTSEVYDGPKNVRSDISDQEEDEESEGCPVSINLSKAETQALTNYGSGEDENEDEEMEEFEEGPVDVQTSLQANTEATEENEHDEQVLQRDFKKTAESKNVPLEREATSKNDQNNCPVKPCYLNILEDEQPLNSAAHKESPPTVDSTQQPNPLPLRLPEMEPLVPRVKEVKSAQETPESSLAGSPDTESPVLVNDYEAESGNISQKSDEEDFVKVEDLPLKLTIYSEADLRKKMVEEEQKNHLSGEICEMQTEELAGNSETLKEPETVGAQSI

The assay addresses T1, FLAG-tagged TCHP (Trichoplein), bait of the co-IP with mass spectrometry (human) (UniProt Q9BT92).
T1 sequence: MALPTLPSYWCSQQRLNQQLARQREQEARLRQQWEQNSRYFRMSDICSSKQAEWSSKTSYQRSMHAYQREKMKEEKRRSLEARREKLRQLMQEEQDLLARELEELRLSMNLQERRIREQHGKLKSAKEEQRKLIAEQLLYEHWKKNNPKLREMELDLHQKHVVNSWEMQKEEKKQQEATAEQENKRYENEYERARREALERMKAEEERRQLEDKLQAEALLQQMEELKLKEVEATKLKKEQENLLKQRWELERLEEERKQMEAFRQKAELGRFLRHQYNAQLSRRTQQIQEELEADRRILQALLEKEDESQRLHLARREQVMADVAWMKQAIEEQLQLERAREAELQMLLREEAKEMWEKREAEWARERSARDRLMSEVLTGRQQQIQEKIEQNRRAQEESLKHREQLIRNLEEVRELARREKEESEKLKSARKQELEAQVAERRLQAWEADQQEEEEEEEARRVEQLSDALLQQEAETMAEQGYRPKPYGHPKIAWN
Nature of the assay: affinity purification with mass spectrometry.

No constants are given. Whether binding was seen depends on the method and setting. In cells and extracts the contact can be indirect. These calls come from enrichment with a bait or labelling near it, and not all partners need be listed. Where a sequence is shown, tags or fusion partners need not be part of it.

With “PCM1, endogenous in HEK293 cells (from UniProt Q15154 1-2024)”, the binding entry is listed as “binds”.
